In patent publication US9757393B2 (priority 2015, dated 2017):
At least one structure is not confirmed: it was looked up by name or label, or the drawing left a doubt.

Assays:
HFD-fed C57BL/6J mice [1] = experiment: Body weight, food intake and tissue weight in HFD-fed mice; format: in vivo; conditions: for food intake (consumption of high-fat diet): all treated groups compared with HF mice; for weight of visceral fat: vs HF group
Description: (§1) Experimental Animals: the experiments are conducted under the guidelines of the Institutional Animal Care and Use Committee of Central Taiwan University of Science and Technology. As previously described, four-week-old male C57BL/6J mice (n=63) is purchased from the National Laboratory Animal Breeding and Research Center, Ministry of Science and Technology. After 1-week of acclimatization, mice are designed to initiate the study, and the study lasts for 12 weeks. […] The CON group and high-fat control (HF) group are given with vehicle only. The low-fat diet consisted of fat 10%, whereas the high-fat diet (HFD) consisted of fat 45% (of total energy, % kcal). The compositions of the experimental diets are shown as described. At the end of the study, food is derived from the animals (from 10 p.m. to 10 a.m.). On the next day, the mice are sacrificed, and blood and tissue are collected for analysis. Livers, skeletal muscles, and white adipose tissues (WATs) (including epididymal, mesenteric and retroperitoneal WAT) are excised and weighed, and then immediately stored in a freezer at −80° C. Heparin (30 units/mL) (Sigma) is added to blood samples. Plasma samples are collected by centrifugation at 1600 g for 15 min at 4° C. within 30 min, and plasma is obtained for insulin and leptin level analysis.
Body Weight, Food Intake and Tissue Weight. Throughout the embodiment, body weight and food intake are daily recorded at the same time. Body weight gain is defined as the difference between 1 day and the next day. The pellet food is weighed and placed in a cage food container. After 24 h, the remaining food is weighed and the crumbs are collected as much as possible. Based on the difference between 1 day and the next day, the daily food intake is calculated.

HFD-fed C57BL/6J mice [2] = experiment: Blood glucose, HbA1c, blood lipids, insulin and leptin levels in HFD-fed mice; format: in vivo; conditions: vs HF group
Description: as §1
Blood Glucose and HbA1c Levels. Blood samples (0.8 mL) are collected from the retro-orbital sinuses of fasting mice, and glucose level is measured by the glucose oxidase method (model 1500; Sidekick Glucose Analyzer; YSI Inc., Yellow Springs, Ohio, USA). Percent HbA1c is detected with a Hemoglobin A1c kit (BioSystems S.A., Barcelona, Spain). Plasma triglycerides (TG), total cholesterol (TC), free fatty acids (FFA), high-density lipoprotein cholesterol (HDL-C), and low density lipoprotein cholesterol (LDL-C) are determined using commercial assay kits (Triglycerides-E test, Cholesterol-E test, and FFA-C test, Wako Pure Chemical, Osaka, Japan; HDL-C-test and LDL-C-test, Roche Diagnostics GmbH, Indianapolis, USA) according to their instructions. A mouse insulin ELISA kit (Sibayagi, Gunma, Japan) and mouse leptin ELISA kit (Morinaga, Yokohama, Japan) are used to measure blood insulin and leptin levels, respectively.

HFD-fed C57BL/6J mice [3] = experiment: Histopathology examination of epididymal WAT and liver tissue; format: in vivo; conditions: liver tissue, 10 mg/kg/day
Description: as §1, with “level analysis. […]” for “level analysis.”

PEPCK mRNA = experiment: Semiquantitative RT-PCR, liver tissue: PEPCK; format: in vivo, C57BL/6J mice; conditions: HFD-fed mice
Description: as §1, with “Heparin (30 units/mL) (Sigma) is added to blood samples. Plasma samples are collected by centrifugation at 1600 g for 15 min at 4° C. within 30 min, and plasma is obtained for insulin and leptin level analysis.” left out
(§2) The experiment is performed as in a previously described protocol. […] The relative density of the band is evaluated using AlphaDigiDoc 1201 software (Alpha Innotech Co., San Leandro, Calif., USA). All of the measured PCR products are normalized to the amount of cDNA of GAPDH in each sample.

G6 Pase mRNA = experiment: Semiquantitative RT-PCR, liver tissue: G6 Pase; format: in vivo, C57BL/6J mice; conditions: HFD-fed mice
Description: as §1, with “Heparin (30 units/mL) (Sigma) is added to blood samples. Plasma samples are collected by centrifugation at 1600 g for 15 min at 4° C. within 30 min, and plasma is obtained for insulin and leptin level analysis.” left out
as §2

SREBP1c mRNA = experiment: Semiquantitative RT-PCR, liver tissue: SREBP1c; format: in vivo, C57BL/6J mice; conditions: HFD-fed mice
Description: as §1, with “Heparin (30 units/mL) (Sigma) is added to blood samples. Plasma samples are collected by centrifugation at 1600 g for 15 min at 4° C. within 30 min, and plasma is obtained for insulin and leptin level analysis.” left out
as §2

DGAT2 mRNA = experiment: Semiquantitative RT-PCR, liver tissue: DGAT2; format: in vivo, C57BL/6J mice; conditions: HFD-fed mice
Description: as §1, with “Heparin (30 units/mL) (Sigma) is added to blood samples. Plasma samples are collected by centrifugation at 1600 g for 15 min at 4° C. within 30 min, and plasma is obtained for insulin and leptin level analysis.” left out
as §2

apo C-III mRNA = experiment: Semiquantitative RT-PCR, liver tissue: apo C-III; format: in vivo, C57BL/6J mice; conditions: HFD-fed mice
Description: as §1, with “Heparin (30 units/mL) (Sigma) is added to blood samples. Plasma samples are collected by centrifugation at 1600 g for 15 min at 4° C. within 30 min, and plasma is obtained for insulin and leptin level analysis.” left out
as §2

SREBP2 mRNA = experiment: Semiquantitative RT-PCR, liver tissue: SREBP2; format: in vivo, C57BL/6J mice; conditions: HFD-fed mice
Description: as §1, with “Heparin (30 units/mL) (Sigma) is added to blood samples. Plasma samples are collected by centrifugation at 1600 g for 15 min at 4° C. within 30 min, and plasma is obtained for insulin and leptin level analysis.” left out
as §2

adiponectin mRNA = experiment: Semiquantitative RT-PCR, liver tissue: adiponectin; format: in vivo, C57BL/6J mice; conditions: HFD-fed mice, 10 mg/kg/day
Description: as §1, with “Heparin (30 units/mL) (Sigma) is added to blood samples. Plasma samples are collected by centrifugation at 1600 g for 15 min at 4° C. within 30 min, and plasma is obtained for insulin and leptin level analysis.” left out
as §2

membrane GLUT4 = experiment: Western blotting of membrane GLUT4 in skeletal muscle; format: in vivo, C57BL/6J mice; conditions: HFD-fed mice, vs HF group
Description: (§3) Experimental Animals: the experiments are conducted under the guidelines of the Institutional Animal Care and Use Committee of Central Taiwan University of Science and Technology. As previously described, four-week-old male C57BL/6J mice (n=63) is purchased from the National Laboratory Animal Breeding and Research Center, Ministry of Science and Technology. After 1-week of acclimatization, mice are designed to initiate the study, and the study lasts for 12 weeks. […] The CON group and high-fat control (HF) group are given with vehicle only. The low-fat diet consisted of fat 10%, whereas the high-fat diet (HFD) consisted of fat 45% (of total energy, % kcal). […]
(§4) Protein extractions and immunoblots for the determination of membrane GLUT4, phospho-AMPK (Thr172), and phospho-Akt (Ser 473) proteins are carried out on frozen skeletal muscle and liver tissue from mice, which follows a previous paper. […] The protein contents of membrane GLUT4, phospho-AMPK, phospho-Akt, total AMPK, and total Akt are detected by western blotting. Western blotting has been determined as described elsewhere. Subsequently, antibodies are detected using horseradish peroxidase linked to a goat anti-IgG rabbit secondary antibody and visualized using an ECL system. […] The density blotting is analyzed using Alpha Easy FC software (Alpha Innotech Corp., Randburg, South Africa). […]

[4] = system: phospho-Akt (Ser 473)/total Akt; experiment: Western blotting of phospho-Akt (Ser 473)/total Akt; format: in vivo, C57BL/6J mice; conditions: HFD-fed mice, vs HF mice, 10 mg/kg/day
Description: as §3, §4

phospho-AMPK (Thr172) = experiment: Western blotting of phospho-AMPK (Thr172) in liver tissue and skeletal muscle; format: in vivo, C57BL/6J mice; conditions: HFD-fed mice
Description: as §1
Protein extractions and immunoblots for the determination of membrane GLUT4, phospho-AMPK (Thr172), and phospho-Akt (Ser 473) proteins are carried out on frozen skeletal muscle and liver tissue from mice, which follows a previous paper. Additionally, membrane GLUT4 is carried out on frozen skeletal muscle from mice, and the total membrane fractions are collected with buffer and centrifuged as a previously described. The protein contents of membrane GLUT4, phospho-AMPK, phospho-Akt, total AMPK, and total Akt are detected by western blotting. Western blotting has been determined as described elsewhere. Subsequently, antibodies are detected using horseradish peroxidase linked to a goat anti-IgG rabbit secondary antibody and visualized using an ECL system. Membrane GLUT4, structural proteins GAPDH and β-actin are purchased from Santa Cruz Biotechnology (Santa Cruz, Calif., USA); phospho-AMPK was obtained from Abcam Inc. (Cambridge, Mass., USA); phospho-Akt, total AMPK, and total Akt are from Cell Signaling Technology, Inc. (Danver Mass., USA); the BCA protein assay kit is from Thermo Scientific (Rockford, Ill., USA); and the ECL reagent kit is from GE Healthcare BioSciences (Buckinghamshire, UK). The secondary antibody antirabbit is from Jackson ImmunoResearch Laboratories, Inc. (West Grove, Pa., USA). The density blotting is analyzed using Alpha Easy FC software (Alpha Innotech Corp., Randburg, South Africa). […]

CN(CCOc1ccc(CC2SC(=O)NC2=O)cc1)c1ccccn1 (centres unmarked) [Rosi, rosiglitazone, reference compound]
food intake (consumption of high-fat diet) (HFD-fed C57BL/6J mice [1]): similarly | weight of visceral fat (HFD-fed C57BL/6J mice [1]; 10 mg/kg/day): decrease | blood glucose levels (HFD-fed C57BL/6J mice [2]; 10 mg/kg/day): significantly reduce | blood insulin levels (HFD-fed C57BL/6J mice [2]; 10 mg/kg/day): decrease | blood leptin levels (HFD-fed C57BL/6J mice [2]; 10 mg/kg/day): decrease | blood total cholesterol (TC) levels (HFD-fed C57BL/6J mice [2]; 10 mg/kg/day): lower | blood triglyceride (TG) level (HFD-fed C57BL/6J mice [2]; 10 mg/kg/day): decrease | ballooning degeneration of hepatocyte (HFD-fed C57BL/6J mice [3]): decreases | mRNA level of PEPCK (PEPCK mRNA; 10 mg/kg/day): decreased | mRNA level of G6 Pase (G6 Pase mRNA; 10 mg/kg/day): decreased | mRNA level of SREBP1c (SREBP1c mRNA; 10 mg/kg/day): decreased | mRNA level of DGAT2 (DGAT2 mRNA; 10 mg/kg/day): decreased | mRNA level of apo C-III (apo C-III mRNA; 10 mg/kg/day): decreased | mRNA level of SREBP2 (SREBP2 mRNA; 10 mg/kg/day): decreased | mRNA level of adiponectin (adiponectin mRNA): increase | muscular membrane GLUT4 protein contents (membrane GLUT4; 10 mg/kg/day): increased | levels of phospho-Akt/total Akt [4]: higher | protein contents of phospho-AMPK (phospho-AMPK (Thr172); liver tissue, 10 mg/kg/day): significantly increased | protein contents of phospho-AMPK (phospho-AMPK (Thr172); skeletal muscle, 10 mg/kg/day): significantly increased

CC(C)OC(=O)C(C)(C)Oc1ccc(C(=O)c2ccc(Cl)cc2)cc1 [Feno, fenofibrate, reference compound]
food intake (consumption of high-fat diet) (HFD-fed C57BL/6J mice [1]): similarly | weight of visceral fat (HFD-fed C57BL/6J mice [1]; 250 mg/kg/day): decrease | blood glucose levels (HFD-fed C57BL/6J mice [2]; 250 mg/kg/day): significantly reduce | blood insulin levels (HFD-fed C57BL/6J mice [2]; 250 mg/kg/day): decrease | blood leptin levels (HFD-fed C57BL/6J mice [2]; 250 mg/kg/day): decrease | blood total cholesterol (TC) levels (HFD-fed C57BL/6J mice [2]; 250 mg/kg/day): no changes | blood triglyceride (TG) level (HFD-fed C57BL/6J mice [2]; 250 mg/kg/day): decrease | mRNA level of PEPCK (PEPCK mRNA; 250 mg/kg/day): decreased | mRNA level of G6 Pase (G6 Pase mRNA; 250 mg/kg/day): decreased | mRNA level of SREBP1c (SREBP1c mRNA; 250 mg/kg/day): decreased | mRNA level of DGAT2 (DGAT2 mRNA; 250 mg/kg/day): decreased | mRNA level of apo C-III (apo C-III mRNA; 250 mg/kg/day): decreased | mRNA level of SREBP2 (SREBP2 mRNA; 250 mg/kg/day): decreased | muscular membrane GLUT4 protein contents (membrane GLUT4; 250 mg/kg/day): increased | protein contents of phospho-AMPK (phospho-AMPK (Thr172); liver tissue, 250 mg/kg/day): significantly increased | protein contents of phospho-AMPK (phospho-AMPK (Thr172); skeletal muscle, 250 mg/kg/day): significantly increased
